These are yes or no findings as the source states them, for the method shown. Some results given as binding are weak or reduced against the parent protein; the word gives no strength. Tags and fused reporters may be left off the sequences shown.
Legend:
[1] = target: T1, human Bonzo with N-terminal hemagglutinin (HA) epitope, expressed on transfected L1.2 cells (Bonzo/L1.2 cells) (human) (UniProt O00574); assay: synthetic peptide on Bonzo/L1.2 cells; binding assay not described
T1 sequence: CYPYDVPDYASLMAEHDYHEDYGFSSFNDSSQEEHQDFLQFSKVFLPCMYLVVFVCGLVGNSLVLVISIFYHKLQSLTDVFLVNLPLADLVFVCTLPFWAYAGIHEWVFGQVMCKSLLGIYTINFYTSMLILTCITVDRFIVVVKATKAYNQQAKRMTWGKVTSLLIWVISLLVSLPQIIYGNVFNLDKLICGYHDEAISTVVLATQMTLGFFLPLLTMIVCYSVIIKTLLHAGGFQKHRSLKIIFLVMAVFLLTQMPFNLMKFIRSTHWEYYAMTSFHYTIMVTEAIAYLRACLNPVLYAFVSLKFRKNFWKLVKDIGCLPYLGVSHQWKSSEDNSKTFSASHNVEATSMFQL

Amino acid sequences for entries named in this document (tags omitted). A change or cut given only in a name is not applied to a line headed by its entry.
UniProt O00574: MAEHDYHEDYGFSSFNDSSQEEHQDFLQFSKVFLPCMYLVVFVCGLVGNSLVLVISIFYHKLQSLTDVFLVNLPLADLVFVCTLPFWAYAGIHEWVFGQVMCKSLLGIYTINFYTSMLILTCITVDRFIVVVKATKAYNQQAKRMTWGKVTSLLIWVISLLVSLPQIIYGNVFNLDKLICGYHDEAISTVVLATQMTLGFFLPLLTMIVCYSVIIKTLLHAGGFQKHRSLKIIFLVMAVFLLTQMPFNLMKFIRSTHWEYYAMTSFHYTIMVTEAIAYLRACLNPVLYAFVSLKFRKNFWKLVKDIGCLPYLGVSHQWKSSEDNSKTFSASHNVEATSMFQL

[2] = target: T1, human Bonzo with N-terminal hemagglutinin (HA) epitope, expressed on transfected L1.2 cells (Bonzo/L1.2 cells) (human); assay: inferred from chemotaxis of Bonzo/L1.2 cells

B1: synthetic peptide consisting of amino acid residues 30 (Asn) to 95 (Ser) of human SExCkine (SEQ ID NO:4) (peptide)
peptide: NEGSVTGSCYCGKRISSDSPPSVQFMNRLRKHLRAYHRCLYYTRFQLLSWSVCGGNKDPWVQELMS
binding [1]: binds
binding [2]: binds

Source: patent US20030165995A1 (Takeda / Millennium, published 2003)
